Measurements reported in PubChem BioAssay AID686943 (Drosophila RNAi Screening Center, 2013).
Assay: 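Search across the genome for regulators of signalling from receptor tyrosine kinase to ERK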 (primary screen). Cells: Drosophila S2R+ haemocyte-like cells expressing YFP-tagged ERK (Rolled). Knock-down reagent: long dsRNA against Drosophila genes. Treatment: insulin stimulation versus unstimulated cells; dose and duration not given. Read-out: 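Antibody staining for doubly phosphorylated ERK divided by ERK-YFP signal, as plate z-scores, in insulin-treated and untreated cells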. Reading the numbers: replicate 1, z-score of dpERK with insulin and replicate 2, z-score of dpERK with insulin: higher = more active ERK per ERK-YFP after insulin.
The screen tested about 23,000 reagents; shown is a random part of those with a known target gene and a result. 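Extra replicates exist only for a retested subset of genes; insulin dose and duration not given; both raised and lowered dpERK matter.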 Further read-outs or replicates are left out here. Not given: the amount of reagent, the time to read-out.

Targ3 (GeneID 5740205) [DRSC11471] — replicate 1, z-score of dpERK with insulin: -0.71; replicate 2, z-score of dpERK with insulin: -1.34
CG8519 (GeneID 38745) [DRSC10985] — replicate 1, z-score of dpERK with insulin: -0.18; replicate 2, z-score of dpERK with insulin: 0.01
CG31869 (GeneID 34490) [DRSC02582] — replicate 1, z-score of dpERK with insulin: 0.5; replicate 2, z-score of dpERK with insulin: -0.39
CG31869 (GeneID 34490) [DRSC02674] — replicate 1, z-score of dpERK with insulin: 0.25; replicate 2, z-score of dpERK with insulin: 0.17
zip (GeneID 38001) [DRSC04725] — replicate 1, z-score of dpERK with insulin: 0.39; replicate 2, z-score of dpERK with insulin: -0.22
zip (GeneID 38001) [DRSC22489] — replicate 1, z-score of dpERK with insulin: -1.63; replicate 2, z-score of dpERK with insulin: 0.05
CG7546 (GeneID 38844) [DRSC08885] — replicate 1, z-score of dpERK with insulin: 1.13; replicate 2, z-score of dpERK with insulin: 0.68
CG7546 (GeneID 38844) [DRSC10871] — replicate 1, z-score of dpERK with insulin: 0.44; replicate 2, z-score of dpERK with insulin: 0.28
CG7546 (GeneID 38844) [DRSC22148] — replicate 1, z-score of dpERK with insulin: 0.7; replicate 2, z-score of dpERK with insulin: -0.31
Acn (GeneID 35173) [DRSC02062] — replicate 1, z-score of dpERK with insulin: 1.27; replicate 2, z-score of dpERK with insulin: 1.9
Ire1 (GeneID 42358) [DRSC15606] — replicate 1, z-score of dpERK with insulin: -0.18; replicate 2, z-score of dpERK with insulin: 0.12
Lip4 (GeneID 34450) [DRSC02930] — replicate 1, z-score of dpERK with insulin: 0.37; replicate 2, z-score of dpERK with insulin: -0.42

2 successive reagents from above, for reference:
CG7546 (GeneID 38844) [DRSC08885] — replicate 1, z-score of dpERK with insulin: 1.13; replicate 2, z-score of dpERK with insulin: 0.68
CG7546 (GeneID 38844) [DRSC10871] — replicate 1, z-score of dpERK with insulin: 0.44; replicate 2, z-score of dpERK with insulin: 0.28
